Drawing on PubChem BioAssay AID328 (DTP/NCI, 2004), this text covers T/C and survivor count for 30 compounds.

SMILES strings stand for the structures. The list shows only some results of the screen, not a fair sample: it is rich in T/C values a quarter to a half above the control, in often repeated tests (any T/C) and in doses without a T/C. Further doses and runs are listed elsewhere. T/C: endpoint of the treated group in % of that of the vehicle group. Some doses have a count of surviving animals in place of a T/C: the source files T/C as zero there, which appears to mark a toxic dose or a test without result, not a measured value. Some survivor counts are full or nearly so, which does not show that the dose was tolerated: the source hardly ever lists a survival T/C far under the control, and the zero likely stands for such cases as well. Counts of survivors are from the toxicity check (mostly the fifth day) where no day follows; animals may have died later. Schedules are NCI's codes, taken here to give the interval after Q, in days (D) or hours (H), and the number of doses after X. Some entries hold several experiments; the results are listed from low to high. Some molecules as drawn cover several salts, stereoisomers or complexes of the source; a dose is that of the sample tested. Counts like (3×) count equal records among those shown. For survival time, this PubChem deposit counts one and a half times the control or more as active, and values a quarter to a half above the control carry no call in these data; other NCI protocols may use other cut-offs. Some T/C values are followed by the survivors on the day toxicity was checked, most often the fifth; without a count, all were alive then.

The assay concerns BDF1 mice, P388 leukemia ip, median survival T/C. Description: NCI In Vivo Anticancer Drug Screen. Data for tumor model P388 Leukemia (intraperitoneal) in B6D2F1 (BDF1) mice. Conditions: T/C endpoint: median survival time, higher T/C = longer survival. In short, it runs like this:
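Compound-treated tumour-bearing mice were compared with vehicle-treated controls. Survival was recorded, and the value is the treated-group measurement divided by the control-group measurement (T/C).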

[1] abbreviates: dose: 50.0 mg/kg/injection, schedule: Q01DX009 (ip), vehicle: saline with Tween-80.
Setting [2] is: dose: 100.0 mg/kg/injection, schedule: Q01DX009 (ip), vehicle: saline with Tween-80.
Where [3] appears, read: dose: 200.0 mg/kg/injection, schedule: Q01DX009 (ip), vehicle: saline with Tween-80.
The mark [4] stands for this setting: dose: 400.0 mg/kg/injection, schedule: Q01DX009 (ip), vehicle: saline with Tween-80.
The mark [5] stands for this setting: dose: 200.0 mg/kg/injection, schedule: Q01DX009 (ip), vehicle: Klucel (hydroxypropylcellulose) (HPC).
Where [6] appears, read: dose: 400.0 mg/kg/injection, schedule: Q04DX003 (ip), vehicle: saline with Tween-80.

As for `COc1cc(NS(C)(=O)=O)ccc1Nc1c2ccc([N+](=O)[O-])cc2nc2c(C)cccc12`, the T/C (dose: 0.42 mg/kg/injection, schedule: Q04DX003 (ip), vehicle: saline with Tween-80) is 129 % of control and the T/C (dose: 0.86 mg/kg/injection, schedule: Q04DX003 (ip), vehicle: saline with Tween-80) was 137 % of control.

As for `CNC(=S)N/N=C/c1ccc([N+](=O)[O-])s1`, the survivor count was 6 of 6 under setting [1], 6 of 6 under setting [2] and 6 of 6 under setting [3].

Regarding `C[Si](C)(C)O/C=C1\CCCCC1=O`, the T/C under setting [1] is 126 % of control.

Regarding `CC1=CC(C(O)CC(C)C)C(C)(Cc2ccc(C)cn2)NC1c1ccccc1` (centres undefined), the survivor count is 1 of 6 under setting [1], 0 of 6 under setting [2] and 0 of 6 under setting [3].

Regarding `CC(C)(C)OC(=O)NN=C1CCC(C(C)(C)C)CC1` (centres undefined), the survivor count reads like this: under setting [3], 7 of 7; under setting [4], 0 of 7.

On to `COc1ccc2nc3cc(Cl)ccc3c(NCCNCCNCCNc3c4ccc(Cl)cc4nc4ccc(OC)cc34)c2c1`, for which the survivor count under setting [2] is recorded as 5 of 6.

`O=C(O)c1cc(-c2ccc(Cl)cc2)nc2c(Cl)cccc12`: the survivor count is reported as 6 of 6 under setting [5] and 0 of 6 (dose: 400.0 mg/kg/injection, schedule: Q04DX003 (ip), vehicle: Klucel (hydroxypropylcellulose) (HPC)).

Regarding `C/C=C1\C(=O)OC23C=CC4C(C(=O)OC)C(O)OC(OC12)C43` (centres undefined), the T/C (dose: 1.0 mg/kg/injection, schedule: Q01DX009 (ip), vehicle: saline) was 127 % of control; the T/C (dose: 2.0 mg/kg/injection, schedule: Q01DX009 (ip), vehicle: saline + alcohol) was 145 % of control; the T/C (dose: 4.0 mg/kg/injection, schedule: Q01DX009 (ip), vehicle: saline + alcohol) is 140 % of control.

For `CCCSc1ncnc2nc[nH]c12`, for the setting “dose: 250.0 mg/kg/injection, schedule: Q01DX010 (ip), vehicle: saline”, the survivor count was 5 of 6.

As to `CC(=O)Oc1cc2c[n+](C)c3c4cc(OC(C)=O)c(OC(C)=O)cc4ccc3c2cc1OC(C)=O`, the survivor count (dose: 240.0 mg/kg/injection, schedule: Q01DX009 (ip), vehicle: saline) is 5 of 6.

For the compound `CCN1CC2(COC)C(O)CC(OC)C34C5CC6(O)C(OC)C=C(C5C6OC(=O)c5ccc(OC)c(OC)c5)C(C(OC)C23)C14` (centres undefined), where the note is “dose: 1.5 mg/kg/injection, schedule: Q01DX009 (ip), vehicle: saline with Tween-80”, the survivor count is on record as 6 of 6.

In the case of `Nc1ccc(OCCCCNC(=O)c2ccc(S(=O)(=O)F)cc2)c(Cl)c1`, the survivor count by setting is: (dose: 3.12 mg/kg/injection, schedule: Q01DX009 (ip), vehicle: saline with Tween-80) 6 of 6; (dose: 6.25 mg/kg/injection, schedule: Q01DX009 (ip), vehicle: saline with Tween-80) 6 of 6; (dose: 12.5 mg/kg/injection, schedule: Q01DX009 (ip), vehicle: saline with Tween-80) 6 of 6; under setting [6], 3 of 6.

In the case of `c1ccc2c(c1)nnn1c3ncccc3nc21`, the survivor count runs as follows: under setting [2], 3 of 6; under setting [3], 5 of 6.

On to `O=C(COc1cccc(Cl)c1)Nc1cccnc1`, for which, where the note is “dose: 400.0 mg/kg/injection, schedule: Q01DX001 (ip), vehicle: Klucel (hydroxypropylcellulose) (HPC)”, the survivor count was 2 of 6.

As for `N/N=C1/CCN2CCCc3cccc1c32`, the survivor count (dose: 200.0 mg/kg/injection, schedule: Q04DX003 (ip), vehicle: saline with Tween-80) was 5 of 6.

Take `NC(N)=N/N=C/C=N/N=C(N)N`: the survivor count by setting is: (dose: 100.0 mg/kg/injection, schedule: Q04DX003 (ip), vehicle: saline) 3 of 6; (dose: 200.0 mg/kg/injection, schedule: Q04DX003 (ip), vehicle: saline) 0 of 6 (2×); (dose: 400.0 mg/kg/injection, schedule: Q04DX003 (ip), vehicle: saline) 0 of 6 (2×).

In the case of `CNNCc1ccc(/C=N/NC(N)=S)cc1`, under “dose: 100.0 mg/kg/injection, schedule: Q01DX009 (ip), vehicle: water”, the survivor count is listed as 5 of 6.

With `COc1cc([N+](=O)[O-])c(Cl)cc1NS(=O)(=O)c1ccccc1`, under setting [2], the T/C was 145 % of control.

Regarding `CCNC(C)(C)C(S)c1ccc(Cl)s1` (centres undefined), the T/C (dose: 50.0 mg/kg/injection, schedule: Q04DX003 (ip), vehicle: saline with Tween-80) is 145 % of control. Further, the survivor count under setting [3] was 3 of 6, the survivor count under setting [4] is listed as 0 of 6 and the survivor count under setting [6] is 2 of 6.

As to `CC(=O)c1ccc2c(c1)N(CCCN1CCN(CCO)CC1)c1ccccc1S2`, the survivor count (dose: 25.0 mg/kg/injection, schedule: Q01DX009 (ip), vehicle: saline) is reported as 6 of 6.

As to `O=C(Nc1ccccc1)c1c(O)[nH]c(=S)[nH]c1=O`, the T/C (dose: 25.0 mg/kg/injection, schedule: Q01DX005 (ip), vehicle: saline with Tween-80) was 145 % of control [5 of 6 alive]. Besides, the survivor count (dose: 100.0 mg/kg/injection, schedule: Q01DX005 (ip), vehicle: saline with Tween-80) is on record as 0 of 6 and the survivor count (dose: 200.0 mg/kg/injection, schedule: Q01DX005 (ip), vehicle: saline with Tween-80) is listed as 0 of 6.

Turning to `O=C(CN1CCCCC1)Nc1ccc(Br)cc1`, the survivor count under setting [4] was 2 of 6.

As to `O=C1NC(=O)C(CSCc2ccccc2)(CSCc2ccccc2)N1`, the survivor count under setting [3] is reported as 6 of 6.

Regarding `CCNc1nc(Cl)nc(-c2cn(-c3ccccc3)c3ccccc23)n1`, the survivor count is on record as 6 of 6 under setting [5] and 6 of 6 (dose: 400.0 mg/kg/injection, schedule: Q01DX009 (ip), vehicle: Klucel (hydroxypropylcellulose) (HPC)).

Consider `CCCCC(C)(CN(C)C)C(=O)/C=C/c1ccc(Cl)c(Cl)c1` (centres undefined), for which the survivor count (dose: 50.0 mg/kg/injection, schedule: Q01DX009 (ip), vehicle: saline) is given as 5 of 6; the survivor count (dose: 100.0 mg/kg/injection, schedule: Q01DX009 (ip), vehicle: saline) was 1 of 6; the survivor count (dose: 200.0 mg/kg/injection, schedule: Q01DX009 (ip), vehicle: saline) is listed as 0 of 6.

For `CCN(CC)CCCC(C)NC(=O)c1ccc2c(c1)C(=O)c1ccccc1C2=O` (centres undefined), the T/C (dose: 200.0 mg/kg/injection, schedule: Q01DX005 (ip), vehicle: saline) was 127 % of control.

With `O=C1CC(c2ccc(OCN(CCCl)CCCl)cc2)CC(=O)C1CN(CCCl)CCCl` (centres undefined), the T/C runs as follows: (dose: 1.0 mg/kg/injection, schedule: Q01DX009 (ip), vehicle: Klucel (hydroxypropylcellulose) (HPC)) 145 % of control; (dose: 2.0 mg/kg/injection, schedule: Q01DX009 (ip), vehicle: Klucel (hydroxypropylcellulose) (HPC)) 145 % of control; (dose: 8.0 mg/kg/injection, schedule: Q01DX009 (ip), vehicle: Klucel (hydroxypropylcellulose) (HPC)) 145 % of control.

With `CCOC(=O)N1CCN(CCCCCOc2ccccc2C2CCCCC2)CC1`, under setting [3], the T/C is 126 % of control.

With `O=C(NNC(=O)c1ccc([N+](=O)[O-])cc1)c1ccccc1`, the survivor count is reported as 6 of 6 (dose: 12.5 mg/kg/injection, schedule: Q01DX009 (ip), vehicle: Klucel (hydroxypropylcellulose) (HPC)) and 6 of 6 (dose: 25.0 mg/kg/injection, schedule: Q01DX009 (ip), vehicle: Klucel (hydroxypropylcellulose) (HPC)).

Consider `CNC1=C(N2CC2)C(=O)C(NC)=C(N2CC2)C1=O`, for which the T/C (dose: 0.05 mg/kg/injection, schedule: Q01DX009 (ip), vehicle: saline) was 128 % of control. Also, the survivor count is 6 of 6 (dose: 0.2 mg/kg/injection, schedule: Q01DX009 (ip), vehicle: saline); 6 of 6 (dose: 0.4 mg/kg/injection, schedule: Q01DX009 (ip), vehicle: saline); 3 of 6 and 6 of 6 (dose: 0.8 mg/kg/injection, schedule: Q01DX009 (ip), vehicle: saline).
